PubChem BioAssay AID1259285 | Sanger Institute – 2017
The whole screen tested 794 reagents; this is an unselected part. 20 of all reagents (2.5%) count as active. 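Calls rest on the drug-free arm alone and ignore synergy scores; viability ratios seem to be capped at 1.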 Entries without a mark were called inactive. Further read-outs or replicates are left out here. Not given: the amount of reagent, the time to read-out.

Screen: 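Kinase knock-downs that reduce colorectal cancer cell viability or act with drugs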 (primary screen)
Cells: human HCC56 colorectal cancer cells
Knock-down reagent: siRNA pool against human genes
Conditions: DMSO vehicle, or anchor drug BYL719 at 1 µM, cetuximab at 5 µg/ml, or trametinib at 10 nM
Detection: 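Viability as a ratio to non-targeting pool wells, averaged over replicates and turned into a robust z-score; synergy scores with BYL719, cetuximab or trametinib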
Reading the numbers: viability robust z-score, no drug: higher = more viable cells, weaker knock-down effect; viability vs non-targeting pool, no drug: higher = more viable cells
Active means: 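Essential when the drug-free viability robust z-score falls below -3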
Calls: active = essential without drug; inactive = no change without drug

LYN (LYN proto-oncogene, Src family tyrosine kinase) scored viability robust z-score, no drug 0.458; viability vs non-targeting pool, no drug 1.
TRIB1 (tribbles pseudokinase 1) gave viability robust z-score, no drug 0.458; viability vs non-targeting pool, no drug 1.
For CHKB (choline kinase beta), the entry reads viability robust z-score, no drug 0.458; viability vs non-targeting pool, no drug 1.
Depletion of PIP5K1C (phosphatidylinositol-4-phosphate 5-kinase type 1 gamma) gave: viability robust z-score, no drug -0.141; viability vs non-targeting pool, no drug 0.949.
With knock-down of MYLK (myosin light chain kinase), the screen gave viability robust z-score, no drug 0.458; viability vs non-targeting pool, no drug 1.
Knock-down of NEK1 (NIMA related kinase 1) came out at: viability robust z-score, no drug 0.458; viability vs non-targeting pool, no drug 1.
Knock-down of CDC42BPG (CDC42 binding protein kinase gamma) resulted in: viability robust z-score, no drug 0.113; viability vs non-targeting pool, no drug 0.97.
After knock-down of DLG2 (discs large MAGUK scaffold protein 2), the record shows viability robust z-score, no drug 0.458; viability vs non-targeting pool, no drug 1.
Against CAMKK1 (calcium/calmodulin dependent protein kinase kinase 1), the values are viability robust z-score, no drug 0.458; viability vs non-targeting pool, no drug 1.
MSR1 (macrophage scavenger receptor 1) showed viability robust z-score, no drug 0.458; viability vs non-targeting pool, no drug 1.
Silencing of LMTK2 (lemur tail kinase 2) came out at: viability robust z-score, no drug -0.0865; viability vs non-targeting pool, no drug 0.953.
Knock-down of GUCY2C (guanylate cyclase 2C) gave: viability robust z-score, no drug 0.458; viability vs non-targeting pool, no drug 1.
With knock-down of AK5 (adenylate kinase 5) the results were viability robust z-score, no drug 0.458; viability vs non-targeting pool, no drug 1.
Knock-down of ABL2 (ABL proto-oncogene 2, non-receptor tyrosine kinase) gave: viability robust z-score, no drug 0.458; viability vs non-targeting pool, no drug 1.
After knock-down of EPHA8 (EPH receptor A8), the record shows viability robust z-score, no drug 0.458; viability vs non-targeting pool, no drug 1.
MAPKAPK3 (MAPK activated protein kinase 3) scored viability robust z-score, no drug 0.155; viability vs non-targeting pool, no drug 0.974.
For MYLK4 (myosin light chain kinase family member 4) the deposit lists viability robust z-score, no drug 0.211; viability vs non-targeting pool, no drug 0.979.
For MAP2K6 (mitogen-activated protein kinase kinase 6), the values are viability robust z-score, no drug 0.458; viability vs non-targeting pool, no drug 1.
For ULK2 (unc-51 like autophagy activating kinase 2), the values are viability robust z-score, no drug 0.458; viability vs non-targeting pool, no drug 1.

Part of the list above in another layout:
{"gene": "CHKB (choline kinase beta)", "viability robust z-score, no drug": 0.458, "viability vs non-targeting pool, no drug": 1}
{"gene": "PIP5K1C (phosphatidylinositol-4-phosphate 5-kinase type 1 gamma)", "viability robust z-score, no drug": -0.141, "viability vs non-targeting pool, no drug": 0.949}
{"gene": "MYLK (myosin light chain kinase)", "viability robust z-score, no drug": 0.458, "viability vs non-targeting pool, no drug": 1}
{"gene": "NEK1 (NIMA related kinase 1)", "viability robust z-score, no drug": 0.458, "viability vs non-targeting pool, no drug": 1}
{"gene": "CDC42BPG (CDC42 binding protein kinase gamma)", "viability robust z-score, no drug": 0.113, "viability vs non-targeting pool, no drug": 0.97}

Continued.
After knock-down of EPHB4 (EPH receptor B4), the record shows viability robust z-score, no drug -1.34; viability vs non-targeting pool, no drug 0.845.
Knock-down of LCK (LCK proto-oncogene, Src family tyrosine kinase) came out at: viability robust z-score, no drug -1.33; viability vs non-targeting pool, no drug 0.846.
After knock-down of PCBP1 (poly(rC) binding protein 1), the screen gave viability robust z-score, no drug 0.458; viability vs non-targeting pool, no drug 1.
PRKACA (protein kinase cAMP-activated catalytic subunit alpha) gave viability robust z-score, no drug -0.554; viability vs non-targeting pool, no drug 0.913.
For CEP290 (centrosomal protein 290), the entry reads viability robust z-score, no drug 0.458; viability vs non-targeting pool, no drug 1.
For NEK5 (NIMA related kinase 5) the deposit lists viability robust z-score, no drug 0.458; viability vs non-targeting pool, no drug 1.
Silencing of SRMS gave: viability robust z-score, no drug 0.458; viability vs non-targeting pool, no drug 1.
For IRAK4 (interleukin 1 receptor associated kinase 4), the entry reads viability robust z-score, no drug -1.2; viability vs non-targeting pool, no drug 0.858.
With knock-down of PGK2 (phosphoglycerate kinase 2), the record shows viability robust z-score, no drug 0.458; viability vs non-targeting pool, no drug 1.
PCK1 (phosphoenolpyruvate carboxykinase 1) scored viability robust z-score, no drug 0.458; viability vs non-targeting pool, no drug 1.
With knock-down of PRKD3 (protein kinase D3), the screen gave viability robust z-score, no drug 0.458; viability vs non-targeting pool, no drug 1.
With knock-down of CDK9 (cyclin dependent kinase 9), the record shows viability robust z-score, no drug 0.458; viability vs non-targeting pool, no drug 1.
Against YES1 (YES proto-oncogene 1, Src family tyrosine kinase) the deposit lists viability robust z-score, no drug 0.32; viability vs non-targeting pool, no drug 0.988.
For TWF2 (twinfilin actin binding protein 2) the deposit lists viability robust z-score, no drug 0.458; viability vs non-targeting pool, no drug 1.
MELK (maternal embryonic leucine zipper kinase) scored viability robust z-score, no drug 0.458; viability vs non-targeting pool, no drug 1.
Against TSSK4 (testis specific serine kinase 4) the deposit lists viability robust z-score, no drug 0.458; viability vs non-targeting pool, no drug 1.
PFKFB1 (6-phosphofructo-2-kinase/fructose-2,6-biphosphatase 1) gave viability robust z-score, no drug -1.65; viability vs non-targeting pool, no drug 0.819.
